Assay results as given in patent US20020115167A1.
Results are given in words; binding and its absence hold for the method and conditions named. Binding seen in cells or lysates may run through a third protein. Some entries that bind do so weakly or less than the wild type. Tags and fused reporters may be left off the sequences shown.

Molecular target: Drosophila PAR-1 (dPAR-1), the Dishevelled-associated kinase (Drosophila)
Assay: GST pull-down from Clone-8 cell lysates with or without Wingless stimulation

B1: GST-DM5 (GST fusion of the 36 amino acid segment DM5 of Dsh) (peptide, not shown: a dimerising Fc or GST)
chain: QRLQVRKKPQRRKKRAPSMSRTSSYSSITDSTMSLN
Question: For B1, which binding is on record?
Answer: Its binding is “binds”.
